Paper PMC11005689
No constants are given. Whether binding was seen depends on the method and setting. In cells and extracts the contact can be indirect.

By UniProt entry, the sequences of proteins in these tests, tags left out. Where a name states a change or a piece, a line headed by the entry shows the natural chain unless it says otherwise.
UniProt O43791: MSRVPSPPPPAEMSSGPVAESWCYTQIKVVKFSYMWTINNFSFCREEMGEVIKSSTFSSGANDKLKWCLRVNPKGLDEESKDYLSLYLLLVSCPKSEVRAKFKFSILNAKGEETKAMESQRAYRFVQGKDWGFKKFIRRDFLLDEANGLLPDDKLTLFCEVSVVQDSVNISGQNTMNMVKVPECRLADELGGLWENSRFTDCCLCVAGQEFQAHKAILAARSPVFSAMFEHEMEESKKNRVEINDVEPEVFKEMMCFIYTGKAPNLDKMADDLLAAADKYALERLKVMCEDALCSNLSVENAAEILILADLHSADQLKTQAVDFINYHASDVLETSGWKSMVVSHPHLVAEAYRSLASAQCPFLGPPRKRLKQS
UniProt Q01581: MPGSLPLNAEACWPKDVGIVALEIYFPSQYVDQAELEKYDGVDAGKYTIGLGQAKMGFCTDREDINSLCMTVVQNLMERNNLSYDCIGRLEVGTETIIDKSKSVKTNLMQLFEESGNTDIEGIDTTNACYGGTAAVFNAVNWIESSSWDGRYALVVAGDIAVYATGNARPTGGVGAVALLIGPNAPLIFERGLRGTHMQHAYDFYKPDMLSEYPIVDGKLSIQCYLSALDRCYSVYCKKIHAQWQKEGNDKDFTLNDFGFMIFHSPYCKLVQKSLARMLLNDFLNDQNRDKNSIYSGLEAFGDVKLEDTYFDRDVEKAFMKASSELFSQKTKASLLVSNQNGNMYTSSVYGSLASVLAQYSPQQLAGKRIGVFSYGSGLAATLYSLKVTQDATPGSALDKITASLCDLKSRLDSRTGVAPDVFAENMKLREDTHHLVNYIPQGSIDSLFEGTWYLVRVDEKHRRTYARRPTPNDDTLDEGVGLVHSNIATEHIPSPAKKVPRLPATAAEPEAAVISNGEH

Molecular target: SPOP (transfected construct) (UniProt O43791)
Experiment: co-IP; IP assay of HMGCS1‐WT or HMGCS1‐ΔSBC with SPOP (Figure 5G); cells not stated in the legend

binding: no binding
Substance: HMGCS1‐ΔSBC (from UniProt Q01581)
